Laboratory results from the supplement of paper PMC10849652.
This is one part of the list.

Protein sequences, listed by entry. Tags and fused reporters are not part of them. Lines headed by an entry give the natural chain unless they say otherwise; changes in a name come on top.
UniProt Q9H9B1: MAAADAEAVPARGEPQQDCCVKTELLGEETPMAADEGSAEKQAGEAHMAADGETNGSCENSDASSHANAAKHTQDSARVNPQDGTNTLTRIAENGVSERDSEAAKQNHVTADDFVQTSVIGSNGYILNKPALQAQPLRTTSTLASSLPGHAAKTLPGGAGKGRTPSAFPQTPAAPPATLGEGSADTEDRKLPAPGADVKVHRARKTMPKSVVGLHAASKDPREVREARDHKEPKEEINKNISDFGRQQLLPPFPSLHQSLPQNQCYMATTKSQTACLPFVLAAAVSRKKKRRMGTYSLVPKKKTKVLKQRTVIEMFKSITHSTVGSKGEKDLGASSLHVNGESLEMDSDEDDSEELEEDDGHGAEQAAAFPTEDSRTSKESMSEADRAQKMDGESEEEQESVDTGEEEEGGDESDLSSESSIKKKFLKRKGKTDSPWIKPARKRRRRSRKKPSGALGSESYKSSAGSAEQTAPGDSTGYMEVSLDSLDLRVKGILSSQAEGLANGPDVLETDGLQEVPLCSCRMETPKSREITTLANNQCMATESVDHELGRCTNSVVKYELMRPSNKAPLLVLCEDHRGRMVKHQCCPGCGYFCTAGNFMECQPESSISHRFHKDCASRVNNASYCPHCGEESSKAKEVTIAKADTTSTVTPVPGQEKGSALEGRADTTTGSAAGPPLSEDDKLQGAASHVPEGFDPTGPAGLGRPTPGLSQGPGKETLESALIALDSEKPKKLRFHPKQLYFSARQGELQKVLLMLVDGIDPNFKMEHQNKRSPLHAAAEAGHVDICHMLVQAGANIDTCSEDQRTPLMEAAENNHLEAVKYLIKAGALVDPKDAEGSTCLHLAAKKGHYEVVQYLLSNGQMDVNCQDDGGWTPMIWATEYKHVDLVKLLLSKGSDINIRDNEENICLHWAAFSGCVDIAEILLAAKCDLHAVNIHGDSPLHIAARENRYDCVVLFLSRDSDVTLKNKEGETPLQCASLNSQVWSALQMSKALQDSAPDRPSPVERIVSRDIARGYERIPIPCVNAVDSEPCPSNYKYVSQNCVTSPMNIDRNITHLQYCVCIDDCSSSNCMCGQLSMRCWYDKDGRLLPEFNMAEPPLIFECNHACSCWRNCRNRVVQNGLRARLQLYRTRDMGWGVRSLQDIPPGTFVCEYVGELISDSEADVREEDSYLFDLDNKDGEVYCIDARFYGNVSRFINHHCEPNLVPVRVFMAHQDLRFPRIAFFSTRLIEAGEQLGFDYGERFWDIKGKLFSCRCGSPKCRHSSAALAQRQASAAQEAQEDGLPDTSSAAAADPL
UniProt Q92556, whole entry, looked up: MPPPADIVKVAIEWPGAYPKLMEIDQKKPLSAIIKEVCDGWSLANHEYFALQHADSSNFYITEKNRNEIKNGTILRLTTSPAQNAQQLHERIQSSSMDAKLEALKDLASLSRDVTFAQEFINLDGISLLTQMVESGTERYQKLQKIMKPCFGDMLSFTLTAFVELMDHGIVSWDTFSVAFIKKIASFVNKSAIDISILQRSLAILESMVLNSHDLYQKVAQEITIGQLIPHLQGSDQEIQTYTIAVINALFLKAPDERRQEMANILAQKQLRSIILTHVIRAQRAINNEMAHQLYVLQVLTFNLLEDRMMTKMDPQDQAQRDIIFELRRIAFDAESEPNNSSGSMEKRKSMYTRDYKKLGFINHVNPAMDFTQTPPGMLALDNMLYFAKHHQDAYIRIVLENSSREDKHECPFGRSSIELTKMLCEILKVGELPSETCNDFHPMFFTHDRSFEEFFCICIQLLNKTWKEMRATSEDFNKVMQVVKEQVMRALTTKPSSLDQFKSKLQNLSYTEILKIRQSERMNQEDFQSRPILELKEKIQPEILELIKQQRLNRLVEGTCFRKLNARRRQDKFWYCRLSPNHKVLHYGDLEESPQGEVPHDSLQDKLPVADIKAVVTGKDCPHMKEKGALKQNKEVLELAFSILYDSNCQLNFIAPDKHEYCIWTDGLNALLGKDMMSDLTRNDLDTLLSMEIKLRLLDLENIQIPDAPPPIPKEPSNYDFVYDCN
UniProt O75822, whole entry, looked up: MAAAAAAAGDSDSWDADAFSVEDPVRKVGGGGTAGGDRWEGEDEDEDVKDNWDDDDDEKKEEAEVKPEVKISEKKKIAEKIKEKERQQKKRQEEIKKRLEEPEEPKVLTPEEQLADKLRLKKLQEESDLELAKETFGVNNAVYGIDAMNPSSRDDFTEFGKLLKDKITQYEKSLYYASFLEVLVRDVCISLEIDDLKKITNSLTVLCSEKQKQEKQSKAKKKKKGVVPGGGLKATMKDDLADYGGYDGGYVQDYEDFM
UniProt Q12805: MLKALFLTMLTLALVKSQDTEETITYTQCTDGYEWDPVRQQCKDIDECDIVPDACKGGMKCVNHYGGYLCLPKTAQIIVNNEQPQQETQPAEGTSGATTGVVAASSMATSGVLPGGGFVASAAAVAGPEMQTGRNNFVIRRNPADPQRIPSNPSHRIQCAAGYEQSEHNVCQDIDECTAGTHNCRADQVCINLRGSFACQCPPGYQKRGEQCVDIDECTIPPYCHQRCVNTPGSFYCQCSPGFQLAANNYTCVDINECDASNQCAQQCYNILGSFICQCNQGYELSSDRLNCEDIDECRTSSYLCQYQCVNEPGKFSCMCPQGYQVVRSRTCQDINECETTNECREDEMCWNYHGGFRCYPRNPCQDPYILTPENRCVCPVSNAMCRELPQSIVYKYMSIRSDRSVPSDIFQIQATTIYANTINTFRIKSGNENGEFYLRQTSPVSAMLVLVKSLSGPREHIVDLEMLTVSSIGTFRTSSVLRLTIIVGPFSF
UniProt Q14156: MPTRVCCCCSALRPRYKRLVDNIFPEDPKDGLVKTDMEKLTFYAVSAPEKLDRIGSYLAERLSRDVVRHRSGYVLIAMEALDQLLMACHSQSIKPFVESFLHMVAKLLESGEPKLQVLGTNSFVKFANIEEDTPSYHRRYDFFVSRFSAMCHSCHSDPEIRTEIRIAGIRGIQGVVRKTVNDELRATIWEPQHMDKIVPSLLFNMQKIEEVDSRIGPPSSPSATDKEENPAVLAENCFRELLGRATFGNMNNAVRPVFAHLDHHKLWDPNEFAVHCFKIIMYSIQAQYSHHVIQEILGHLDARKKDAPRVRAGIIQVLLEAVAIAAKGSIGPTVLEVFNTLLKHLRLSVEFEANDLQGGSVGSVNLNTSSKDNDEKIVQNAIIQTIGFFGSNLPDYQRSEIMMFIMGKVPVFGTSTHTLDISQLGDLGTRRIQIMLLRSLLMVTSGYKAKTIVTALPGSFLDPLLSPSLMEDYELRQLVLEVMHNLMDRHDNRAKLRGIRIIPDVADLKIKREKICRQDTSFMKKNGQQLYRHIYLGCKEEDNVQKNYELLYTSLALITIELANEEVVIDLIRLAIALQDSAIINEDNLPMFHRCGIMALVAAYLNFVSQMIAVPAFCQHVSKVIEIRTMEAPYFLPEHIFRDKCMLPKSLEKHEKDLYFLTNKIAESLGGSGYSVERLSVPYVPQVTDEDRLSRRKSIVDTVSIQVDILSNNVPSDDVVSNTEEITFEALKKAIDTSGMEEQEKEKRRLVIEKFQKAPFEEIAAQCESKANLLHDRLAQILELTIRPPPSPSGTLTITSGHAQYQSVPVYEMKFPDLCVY

Columns and labels:
Experiment in all cases: log2 fold change, soluble protein after heating vs DMSO (PISA); higher = thermal stabilisation; K562 cells, 10 uM, 30 min; active = over 0.2 and 3.5 SD of the protein, either way, in both replicates (recomputed)
[1] = compound: CC1=C(C=C(C=C1)NC(=O)C2=CC(=CC=C2)C(C)(C)C#N)NC3=CC4=C(C=C3)N=CN(C4=O)C
Method in brief: (§1)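 Quantification of soluble protein used TMTpro 16plex LC-MS/MS, with channel sums equalised. Samples were the supernatant after 21,000xg for 90 min of pooled aliquots from K562 cells (2×10^6 cells/mL) treated with 10 μM compound for 30 min, heated for 3 min over 48°C-58°C, and extracted in PBS with 0.5% NP-40 at 4°C. Values, from duplicates, describe thermal stability against control samples on a log2 fold-change scale.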

[2] = compound: CC1=C(C=C(C=C1)NC(=O)C2=CC(=CC=C2)N(C)C)NC(=O)C3=CC=C(C=C3)O
Method in brief: as §1

[3] = compound: CC1=CC=C(C=C1)SC2=C3C=C(SC3=CN=C2)C(=O)N
Method in brief: as §1

[4] = compound: CC1=NC(=CC=C1)C2=C(N=C(N2)C(C)(C)C)C3=CC4=NC=CN=C4C=C3
Method in brief: as §1

Nexturastat A = compound: CCCCN(Cc1ccc(C(=O)NO)cc1)C(=O)Nc1ccccc1 [Nexturastat A]
Method in brief: as §1

vemurafenib = compound: CCCS(=O)(=O)Nc1ccc(F)c(C(=O)c2c[nH]c3ncc(-c4ccc(Cl)cc4)cc23)c1F [vemurafenib]
Method in brief: as §1

[5] = compound: CCCS(=O)(=O)Nc1ccc(F)c(C(=O)c2c[nH]c3ncc(Cl)cc23)c1F
Method in brief: as §1

[6] = compound: CCCc1cc(C)[nH]c(=O)c1CNC(=O)c1cc(-c2ccnc(N3CCN(C)CC3)c2)cc2c1cnn2C(C)C
Method in brief: as §1

givinostat = compound: CCN(CC)Cc1ccc2cc(COC(=O)Nc3ccc(C(=O)NO)cc3)ccc2c1 [givinostat]
Method in brief: as §1

barasertib = compound: CCN(CCCOc1ccc2c(Nc3cc(CC(=O)Nc4cccc(F)c4)[nH]n3)ncnc2c1)CCOP(=O)(O)O [barasertib]
Method in brief: as §1

volasertib = compound: CC[C@@H]1C(=O)N(C)c2cnc(Nc3ccc(C(=O)N[C@H]4CC[C@H](N5CCN(CC6CC6)CC5)CC4)cc3OC)nc2N1C(C)C [volasertib]
Method in brief: as §1

epoxomicin = compound: CC[C@H](C)[C@@H](C(=O)N[C@@H]([C@@H](C)O)C(=O)N[C@@H](CC(C)C)C(=O)[C@]1(CO1)C)NC(=O)[C@H]([C@@H](C)CC)N(C)C(=O)C [epoxomicin]
Method in brief: as §1

[7] = compound: CCn1c(C(=O)N(C2CC2)C2CC2)cc2c3c(ncn3C)c(Nc3cc(C)n(C)n3)nc21
Method in brief: as §1

[8] = compound: CCn1cc(-c2ccnc3[nH]c(-c4cccc(CN(C)C)c4)cc23)c(-c2ccc(NC(=O)N(C)C)cc2)n1
Method in brief: as §1

[9] = compound: CN(C)CC(=O)Nc1ccc2[nH]c(=O)c3ccccc3c2c1
Method in brief: as §1

rosiglitazone = compound: CN(CCOC1=CC=C(C=C1)C[C@H]2C(=O)NC(=O)S2)C3=CC=CC=N3 (racemic) [rosiglitazone]
Method in brief: as §1

[10] = compound: CN1C2=C(C3=C1C(=O)N(N=C3)CC4=CC(=CC=C4)N)SC(=C2)S(=O)C
Method in brief: as §1

[11] = compound: CN1CCC(CNc2ccc3ncc(-c4cccc(OC(F)(F)F)c4)n3n2)CC1
Method in brief: as §1

[12] = compound: CC[C@H](C)N1C=C(C2=C(C=C(C=C21)C3=CN=C(C=C3)N4CCNCC4)C(=O)NCC5=C(C=C(NC5=O)C)C)C
Method in brief: as §1

[13] = compound: CC[C@@H]1C(=O)N(C)c2cnc(Nc3ccc(C(=O)NC4CCN(C)CC4)cc3OC)nc2N1C1CCCC1
Method in brief: as §1

Measured: log2 fold change

EHMT1 (UniProt Q9H9B1)
inactive: [1] 0.031 | [2] -0.041 | [3] -0.086 | [4] -0.053 | Nexturastat A 0.098 | vemurafenib -0.059 | [5] 0.06 | [6] -0.225 | givinostat 0.085 | barasertib -0.121 | volasertib -0.074 | epoxomicin -0.03 | [7] -0.077 | [8] 0.098 | [9] 0.072 | rosiglitazone 0.123 | [10] -0.049 | [11] -0.074

ELMO1 (UniProt Q92556)
inactive: [1] -0.075 | [2] -0.005 | [4] -0.074 | Nexturastat A -0.101 | vemurafenib -0.172 | [6] 0.218 | givinostat -0.043 | barasertib -0.105 | [12] -0.089 | epoxomicin -0.109 | [9] 0.031 | [10] -0.078

EIF3J (UniProt O75822)
inactive: [1] 0.01 | [2] -0.026 | [3] -0.005 | [4] 0.039 | Nexturastat A -0.068 | vemurafenib 0.05 | [5] -0.022 | [6] 0.004 | givinostat 0.011 | barasertib 0.046 | [13] -0.061 | volasertib 0.005 | [12] 0.011 | epoxomicin 0.055 | [8] 0.001 | [9] -0.008 | [10] -0.061 | [11] 0.226

EFEMP1 (UniProt Q12805)
inactive: [1] 0.116 | [2] 0.043 | [3] 0.093 | [4] 0.093 | [5] -0.057 | givinostat 0.002 | volasertib -0.07 | [7] -0.044 | [8] 0.024 | [10] 0.243 | [11] -0.091

EFR3A (UniProt Q14156)
inactive: [1] 0.152 | Nexturastat A 0.472 | vemurafenib -0.131 | [6] -0.014 | [12] -0.242 | epoxomicin 0.158 | [9] 0.012
